Laboratory results taken from paper PMC12062965, “Transposable Elements Drive Regulatory and Functional Innovation of F-box Genes”.

By UniProt entry, the sequences of proteins in these tests, tags left out. Where a name states a change or a piece, a line headed by the entry shows the natural chain unless it says otherwise.
UniProt Q7JQ07: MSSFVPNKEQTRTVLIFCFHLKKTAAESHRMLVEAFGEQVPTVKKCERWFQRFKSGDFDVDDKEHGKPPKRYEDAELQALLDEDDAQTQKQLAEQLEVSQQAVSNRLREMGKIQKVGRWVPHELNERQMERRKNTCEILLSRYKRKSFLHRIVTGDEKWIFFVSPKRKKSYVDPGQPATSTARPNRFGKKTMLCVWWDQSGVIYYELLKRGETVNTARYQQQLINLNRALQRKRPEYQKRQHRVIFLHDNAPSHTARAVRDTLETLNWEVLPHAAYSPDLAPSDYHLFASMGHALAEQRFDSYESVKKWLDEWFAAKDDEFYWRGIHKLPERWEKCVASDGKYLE

What was measured:
Experiment in all cases: EMSA
[1] = molecular target: GST-FBXA-215 HTH (Caenorhabditis elegans) (UniProt A0A8S4Q9N7); details: 50 mM Tris-HCl pH 7.5, 150 mM NaCl, 1 mM DTT, protease inhibitors, 2.5% glycerol, 77.3 nM DNA, 25 C 15 min; native 1.5% agarose gel in TBE at 4 C, SYBR Gold stain; recombinant protein; protein details: N-terminal GST
[2] = molecular target: GST-FBXA-192 HTH (Caenorhabditis elegans) (UniProt Q9XUX2); details: 50 mM Tris-HCl pH 7.5, 150 mM NaCl, 1 mM DTT, protease inhibitors, 2.5% glycerol, 77.3 nM DNA, 25 C 15 min; native 1.5% agarose gel in TBE at 4 C, SYBR Gold stain; recombinant protein; protein details: N-terminal GST
[3] = molecular target: T1, GST-FBXA-192 FL (Caenorhabditis elegans) (UniProt Q9XUX2); details: 50 mM Tris-HCl pH 7.5, 150 mM NaCl, 1 mM DTT, protease inhibitors, 2.5% glycerol, 77.3 nM DNA, 25 C 15 min; native 1.5% agarose gel in TBE at 4 C, SYBR Gold stain; recombinant protein; residues 1-401; protein details: N-terminal GST
T1 sequence (looked up): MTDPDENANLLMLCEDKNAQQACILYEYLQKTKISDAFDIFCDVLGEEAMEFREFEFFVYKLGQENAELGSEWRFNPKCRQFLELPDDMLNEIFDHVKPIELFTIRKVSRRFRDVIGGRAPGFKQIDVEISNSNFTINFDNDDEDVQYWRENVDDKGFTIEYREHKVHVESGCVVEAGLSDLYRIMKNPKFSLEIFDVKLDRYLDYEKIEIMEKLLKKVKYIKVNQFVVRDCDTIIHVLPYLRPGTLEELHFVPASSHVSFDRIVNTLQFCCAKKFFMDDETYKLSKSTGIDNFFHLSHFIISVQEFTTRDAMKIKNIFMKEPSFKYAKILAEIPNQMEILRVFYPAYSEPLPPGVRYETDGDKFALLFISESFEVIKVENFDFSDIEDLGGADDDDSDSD

[4] = molecular target: T2, GST-FBXA-215 FL (Caenorhabditis elegans) (UniProt A0A8S4Q9N7); details: 50 mM Tris-HCl pH 7.5, 150 mM NaCl, 1 mM DTT, protease inhibitors, 2.5% glycerol, 77.3 nM DNA, 25 C 15 min; native 1.5% agarose gel in TBE at 4 C, SYBR Gold stain; recombinant protein; residues 1-401; protein details: N-terminal GST
T2 sequence (looked up): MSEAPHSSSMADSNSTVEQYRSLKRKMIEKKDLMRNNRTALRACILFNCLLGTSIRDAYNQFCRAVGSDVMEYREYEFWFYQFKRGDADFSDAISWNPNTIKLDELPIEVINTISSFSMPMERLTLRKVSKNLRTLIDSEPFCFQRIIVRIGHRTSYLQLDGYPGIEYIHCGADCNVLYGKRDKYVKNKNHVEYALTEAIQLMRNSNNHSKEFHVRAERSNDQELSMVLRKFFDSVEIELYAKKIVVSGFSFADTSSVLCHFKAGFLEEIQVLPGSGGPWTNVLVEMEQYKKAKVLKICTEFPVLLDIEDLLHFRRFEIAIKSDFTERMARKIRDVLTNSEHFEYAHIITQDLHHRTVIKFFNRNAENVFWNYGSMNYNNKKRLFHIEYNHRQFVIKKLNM

GST-Mos1 double HTH = GST-Mos1 double HTH (UniProt Q7JQ07); details: 50 mM Tris-HCl pH 7.5, 150 mM NaCl, 1 mM DTT, protease inhibitors, 2.5% glycerol, 77.3 nM DNA, 25 C 15 min; native 1.5% agarose gel in TBE at 4 C, SYBR Gold stain; recombinant protein; protein details: N-terminal GST

Sequence | binding result [1] | binding result [2] | binding result [3] | binding result [4] | binding result (GST-Mos1 double HTH)
AGTACAAAAACTTATGGGACAACCTGATAAGTACAAAAACTTATGGGACAACCTGATA (double strand) [Mariner2-like TIR] | no binding | no binding | no binding | no binding | –
AGTGGATATCTTTTTGGCCAGCACTGTAAGTGGATATCTTTTTGGCCAGCACTGTA (double strand) [Tc1 TIR] | no binding | no binding | no binding | no binding | –
TACAGTGTGGGAAAGTTCTATAGGACCCCCCCTAATTTTACAGTGTGGGAAAGTTCTATAGGACCCCCCCTAATTT (double strand) [Tc3 TIR] | no binding | no binding | no binding | no binding | –
TATTAGGTTGGTCAAAAAGTCTTTGCAAAATTTTATTAGGTTGGTCGAAAAGTCTTTGCAAAATTT (double strand) [Mariner3-like TIR] | no binding | no binding | no binding | no binding | –
TTTCTTTTTCCACAAAATTTAACGTGTTTTTTGATTTAAAAAAAACGACATTTCATACTTGTACACCTGA (double strand) [Mos1 right TIR (IRR100)] | no binding | no binding | – | – | binds

For some of these results: No signal at the amounts used counts as a negative. For some of these results: At least one verdict was read from the data and is not stated in words by the source. For some of these results: Tags and fusion partners may be left off the protein sequences shown. For some of these results: Construct, isoform or probe ends are uncertain for at least one entry.
